PubChem BioAssay AID493014 (National Center for Advancing Translational Sciences (NCATS), 2011)
The other results are listed elsewhere or left out. Shown are side measurements of this screen, not its main read-out; they come without a call. Most of these compounds were active or inconclusive in the main read-out, so they are no random draw. The note in brackets gives the kind of curve behind each potency; many fits are weak.

Experiment: qHTS Assay to Find Inhibitors of Chronic Active B-Cell Receptor Signaling
Conditions: ABC-DLBCL IkBa-CBG/CBR reporter, luminescence ratio (green luciferase fused to IkBa over red control in TMD8 lymphoma cells), 4 h
Outline: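 Cell line TMD8 (human ABC DLBCL), stably expressing tet-inducible CBG68-IkBa fusion and CBR; IMDM/0.5% FBS; cpd up to 46 uM; dox induction, 4 h, 37C/5% CO2; dual luminescence; green/red ratio; MG132 control.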

[1] = measured here: CBR red luminescence, cell number
[2] = measured here: IkBa-CBG green luminescence

| SMILES | AC50 [1] | AC50 [2] |
| --- | --- | --- |
| NS(=O)(=O)c1ccc(CCNC(=O)c2cc(-c3ccc(Br)cc3)nc3ccccc23)cc1 | 0.562 µM [rising, full curve, poor fit] | – |
| COc1cccc(C(=O)c2c[nH]c(C(=O)NCc3cccs3)c2)c1 | 0.461 µM [falling, full curve, poor fit] | – |
| O=C(c1ccc(F)cc1)c1ccc(N2CCCCC2)cc1 | 3.55 µM [rising, single point] | – |
| C=CCNC(=O)CSc1nc2sc(C)c(C)c2c(=O)[nH]1 | 32.6 µM [rising, partial curve, poor fit] | – |
| c1csc(-c2nc(NCC3CCCO3)c3ccccc3n2)c1 (configuration not stated) | 15.8 µM [falling, single point] | – |
| COc1ccccc1CNC(=O)CSc1ccc(Br)cc1 | 4.11 µM [rising, full curve, poor fit] | 10.3 µM [falling, partial curve] |
| Clc1cccc(-c2nc3nc4ccccc4nc3n2Cc2ccco2)c1 | 6.51 µM [falling, partial curve] | – |
| CC(=O)Nc1ccc(OCC(O)Cn2c(C(C)C)nc3ccccc32)cc1 (configuration not stated) | 17.8 µM [rising, partial curve, poor fit] | – |
| CC(=O)Nc1ccc(NC(=O)C(C)OC(=O)/C(C#N)=C/c2ccc(N(C)C)cc2)cc1 (configuration not stated) | 2.31 µM [rising, full curve] | – |
| COc1ccc(C(C[N+](=O)[O-])c2c(C)cc3ccccn23)c(OC)c1 (configuration not stated) | 2.24 µM [falling, full curve] | – |
| C=CCNC(=S)N/N=C/c1cccc([N+](=O)[O-])c1 | – | 25.1 µM [falling, single point] |
| Cc1[nH]c2ccccc2c1CCN(Cc1cccnc1)C(=S)Nc1cccc(F)c1 | 6.31 µM [rising, partial curve, poor fit] | – |
| O=C(COc1cccc2ccccc12)Nc1ccc(Cl)cc1C(=O)O | 2.82 µM [falling, full curve] | – |
| COc1ccc(/C=C/C(=O)Oc2ccc(C)c(C)c2)cc1OC | 35.5 µM [rising, single point] | – |
| CCOC(=O)c1sc(N(Cc2ccccc2)C(=O)CSc2ncn[nH]2)nc1C | 5.8 µM [falling, partial curve, poor fit] | – |
| O=C(NCc1ccccc1)NC1(C(=O)Nc2ccc3c(c2)OCCO3)CCCCC1 | 11.2 µM [rising, partial curve, poor fit] | – |
| COc1ccc(NC(=O)Cn2nnc(-c3ccc(CN4CCOCC4)cc3)n2)c(OC)c1 | 35.5 µM [rising, single point] | – |
| c1cc(-c2cccs2)nc(-c2cccs2)c1 | 4.61 µM [rising, single point] | – |
| O=C(/C=C/c1ccco1)Nc1sc2c(c1C(=O)O)CCC2 | 0.708 µM [falling, full curve] | – |
| Cc1ccc(C)n1-c1ccc(C(=O)Nc2ccccc2F)cc1 | 8.91 µM [falling, partial curve] | – |

Rewritten with bars between the fields: part of the list above
SMILES | AC50 [1] | AC50 [2]
CC(=O)Nc1ccc(NC(=O)C(C)OC(=O)/C(C#N)=C/c2ccc(N(C)C)cc2)cc1 (configuration not stated) | 2.31 µM [rising, full curve] | –
COc1ccc(C(C[N+](=O)[O-])c2c(C)cc3ccccn23)c(OC)c1 (configuration not stated) | 2.24 µM [falling, full curve] | –
C=CCNC(=S)N/N=C/c1cccc([N+](=O)[O-])c1 | – | 25.1 µM [falling, single point]

(list continues)

| SMILES | AC50 [1] | AC50 [2] |
| --- | --- | --- |
| CCOC(=O)C1CCCN(c2cc(C)nc3cc(-c4ccc(Cl)cc4)nn23)C1 (configuration not stated) | 2.31 µM [rising, full curve, poor fit] | – |
| Cc1ccc(C)c(NC(=O)CSc2nnc(NC(=O)C3CC3)s2)c1 | 0.794 µM [rising, full curve, poor fit] | – |
| CCOC(=O)N1CCC(NC(=O)c2cn(-c3ccc(OC)cc3)c(=O)c3ccccc23)CC1 | 18.4 µM [falling, single point] | – |
| O=c1oc2ccccc2c(O)c1C=NCc1ccccn1 | 11.6 µM [falling, partial curve, poor fit] | – |
| Cc1cc(C)c(C(=O)/C=C/c2cccc3ccccc23)c(=O)[nH]1 | 4.11 µM [falling, full curve] | – |
| COc1ccc2c(c1)CCC1C2=NN(/C(C)=C\C(C)=O)C1c1ccc(F)cc1 (configuration not stated) | 35.5 µM [falling, single point] | – |
| COc1cc(NC(=O)CSc2nc3ccccc3c(=O)n2C)ccc1NC(=O)c1ccco1 | 8.91 µM [falling, partial curve] | – |
| COc1ccc(NS(=O)(=O)c2cc(NC(=O)CCNC(C)=O)ccc2N2CCOCC2)cc1 | 0.00461 µM [rising, full curve, poor fit] | – |
| Nc1ccc(-c2nc3c(Cl)cc(N)cc3[nH]2)cc1 | 0.794 µM [falling, full curve, poor fit] | – |
| CC(C)Cc1ccc(/C=C/C(=O)N2CCCCC2)cc1 | 1.12 µM [rising, full curve] | – |
| O=c1[nH]c(CN2CCN(S(=O)(=O)c3ccc4c(c3)OCCO4)CC2)nc2sc3c(c12)CCCC3 | 13 µM [rising, partial curve, poor fit] | – |
| CC(C)NC(=O)c1ccc2c(c1)S(=O)(=O)c1ccccc1C2=O | 0.82 µM [rising, partial curve, poor fit] | – |
| CN1CCC(N(C)C(=O)c2cc(-c3ccccc3Cl)nc3ccccc23)CC1 | 5.8 µM [rising, partial curve, poor fit] | – |
| COc1ccccc1CN1C[C@@H]2C[C@@H](c3[nH]c4c(C)cccc4c3C)N3CCC[C@@]23C1=O | 25.1 µM [falling, single point] | – |
| O=C(Nc1cccc2ccccc12)c1ccc([N+](=O)[O-])s1 | 9.2 µM [falling, partial curve] | – |
| O=S(=O)(Cc1ccc(Cl)cc1)C1CCCCC1O (configuration not stated) | 35.5 µM [rising, single point] | – |
| COc1ccc(-c2nc(CN3CCCCC3c3nccn3C)c(C)o2)c(C)c1C (configuration not stated) | 35.5 µM [rising, single point] | – |
| O=C(CSc1nnc2c(n1)[nH]c1ccccc12)Nc1nncs1 | 35.5 µM [falling, single point] | – |
| Cc1c(C(=O)Nc2nc3ccccc3[nH]2)oc2ccccc12 | 9.2 µM [falling, partial curve] | 20.6 µM [falling, partial curve, poor fit] |
| O=C(Nc1ccc(N2CCN(C(=O)c3ccccc3F)CC2)cc1)c1cncc(Br)c1 | 10 µM [falling, partial curve, poor fit] | – |
